The values that follow come from article PMC8616538.

The chains behind the UniProt entries cited, without tags or fusion partners. Where a name states a change or a piece, a line headed by the entry shows the natural chain unless it says otherwise.
UniProt O43734: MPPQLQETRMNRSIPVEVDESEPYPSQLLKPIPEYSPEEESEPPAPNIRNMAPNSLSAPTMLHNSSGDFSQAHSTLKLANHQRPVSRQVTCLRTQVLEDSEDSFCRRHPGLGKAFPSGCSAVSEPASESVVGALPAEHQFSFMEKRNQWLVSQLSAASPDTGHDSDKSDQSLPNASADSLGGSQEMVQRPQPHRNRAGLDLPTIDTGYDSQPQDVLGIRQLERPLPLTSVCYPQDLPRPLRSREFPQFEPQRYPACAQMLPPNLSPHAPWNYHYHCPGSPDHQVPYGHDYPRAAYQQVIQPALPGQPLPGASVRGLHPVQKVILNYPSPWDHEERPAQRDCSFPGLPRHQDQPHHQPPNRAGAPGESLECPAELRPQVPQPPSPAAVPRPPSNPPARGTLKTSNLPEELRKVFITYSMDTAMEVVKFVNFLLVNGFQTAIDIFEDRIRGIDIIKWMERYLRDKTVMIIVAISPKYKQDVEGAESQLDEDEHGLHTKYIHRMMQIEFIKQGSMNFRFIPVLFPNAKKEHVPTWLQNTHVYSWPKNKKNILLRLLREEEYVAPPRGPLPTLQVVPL
UniProt Q8IUC6: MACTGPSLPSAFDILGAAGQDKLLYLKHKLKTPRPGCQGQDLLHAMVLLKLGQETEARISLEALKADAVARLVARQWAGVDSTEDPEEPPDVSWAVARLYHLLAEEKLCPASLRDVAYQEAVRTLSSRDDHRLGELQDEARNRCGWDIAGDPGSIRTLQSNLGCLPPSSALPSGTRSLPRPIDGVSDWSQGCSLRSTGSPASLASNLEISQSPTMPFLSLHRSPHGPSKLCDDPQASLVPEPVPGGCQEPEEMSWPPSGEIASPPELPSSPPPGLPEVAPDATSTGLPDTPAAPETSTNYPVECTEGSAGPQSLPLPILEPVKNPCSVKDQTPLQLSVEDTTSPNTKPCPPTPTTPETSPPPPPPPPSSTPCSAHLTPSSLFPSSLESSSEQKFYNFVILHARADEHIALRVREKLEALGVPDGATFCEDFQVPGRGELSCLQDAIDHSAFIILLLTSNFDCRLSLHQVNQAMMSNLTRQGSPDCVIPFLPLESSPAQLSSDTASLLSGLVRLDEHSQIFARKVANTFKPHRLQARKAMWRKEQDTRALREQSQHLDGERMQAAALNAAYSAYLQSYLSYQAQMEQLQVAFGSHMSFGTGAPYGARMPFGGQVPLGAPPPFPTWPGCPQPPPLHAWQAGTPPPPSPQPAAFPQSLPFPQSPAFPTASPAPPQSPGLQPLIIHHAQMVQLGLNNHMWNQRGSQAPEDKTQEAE

These are yes or no findings as the source states them, for the method shown. In cells and extracts the contact can be indirect. Some results given as binding are weak or reduced against the parent protein; the word gives no strength.

Assay [1] concerns the target FLAG-tagged Act1 (Act1-FLAG), expressed in HeLa cells (UniProt O43734). The assay is described as follows: proximity ligation; HeLa cells transfected with FLAG-tagged Act1 and HA-tagged TICAM-1, fixed with 4% PFA, Duolink in situ PLA kit.
Assay [2] has as its target FLAG-tagged Act1 (Act1-FLAG), expressed in HEK293FT cells (UniProt O43734). The assay is described as follows: co-IP; whole cell extracts of transfected HEK293FT cells; IP with anti-FLAG antibody and Protein G Sepharose overnight; lysis buffer 10 mM Hepes, 50 mM NaCl, 1 mM EDTA, 10% glycerol, 1% Triton; Western blot. A general note: A western blot detects proteins with antibodies after separation by electrophoresis.

Assay [3] deals with endogenous Act1 of HeLa cells (human (endogenous in HeLa)) (UniProt O43734). The assay is described as follows: co-IP; whole cell extracts of HeLa cells (untransfected, transfected with empty, TICAM-1-HA or TICAM-1-TIR-HA vector, or TICAM-1 KO), untreated or treated with IL-17A (50 or 100 ng/ml); IP with anti-Act1 antibody or control IgG; Western blot.
The target is the same in assay [4]. The assay is described as follows: proximity ligation; HeLa cells stimulated with 0 or 100 ng/ml IL-17A for 15 min, fixed; anti-Act1 and anti-TICAM-1 antibodies; Duolink in situ PLA kit.
For assay [5], the target named is endogenous TICAM-1 of HeLa cells (human (endogenous in HeLa)) (UniProt Q8IUC6). As to the kind of experiment: co-IP; whole cell extracts of HeLa cells, untreated or treated with 100 ng/ml IL-17A; IP with anti-TICAM-1 antibody or control IgG; Western blot.

As for “HA-tagged TICAM-1 (TICAM-1-HA), expressed in HeLa cells (from UniProt Q8IUC6 1-712)”, in assay [1], the binding result was “binds”. Regarding “HA-tagged TIR domain of TICAM-1 (TICAM-1-TIR-HA), expressed in HEK293FT cells (from UniProt Q8IUC6 393-553) (domain or fragment)”, the binding entry in assay [2] is listed as “binds”.

“HA-tagged TICAM-1 (TICAM-1-HA), expressed in HEK293FT cells (from UniProt Q8IUC6 1-712)”: in assay [2], the binding result was “binds”. For “endogenous TICAM-1 of HeLa cells (from UniProt Q8IUC6 1-712)”, the binding result in assay [3] and in assay [4] was “binds” throughout. With “endogenous Act1 of HeLa cells (from UniProt O43734 1-574)”, the binding result in assay [5] is “binds”.
